The results in this text go back to patent US8580773B2, “Small-molecule inhibitors of the androgen receptor” (The Regents of the University of California, priority 2008, dated 2013).

SMILES strings stand for the structures. Where a name gives a salt, the structure may show the parent alone.

Data set [1] is described as follows: Pharmacokinetics in mice, drug levels by mass spectrometry. Type of data set: in vivo. The note with it: wild-type FVB mice, single intraperitoneal injection.
For data set [2] the following is noted: mice; doses tested 0.1 to 10 mg/kg.

For `Cc1cc(/C=C/c2ccc3cc(N(C)C)ccc3[n+]2C)c(C)n1-c1ccccc1` [PP, 6-Dimethylamino-2-[2-(2,5-dimethyl-1-phenyl-1H-pyrrol-3-yl)-vinyl]-1-methyl-quinolinium, pamoate salt, reference compound], in data set [1], the “Clearance / half-life (in words)” value is “prolonged half-life”. For the same molecule, in data set [2], the Tolerated dose was determined as 5 mg/kg and the Toxic dose is reported as 10 mg/kg.
